Values quoted from earlier work as cited in patent publication US7989420B2, “Smooth muscle relaxation” (New York Medical College, priority 2006, dated 2011).
At least one compound was matched to its structure with a doubt left.

Molecular target: T1, sGC purified from bovine lungs (Bos taurus, UniProt P16068)
T1 construct: host or cells: bovine lung
T1 sequence (P16068 1-619): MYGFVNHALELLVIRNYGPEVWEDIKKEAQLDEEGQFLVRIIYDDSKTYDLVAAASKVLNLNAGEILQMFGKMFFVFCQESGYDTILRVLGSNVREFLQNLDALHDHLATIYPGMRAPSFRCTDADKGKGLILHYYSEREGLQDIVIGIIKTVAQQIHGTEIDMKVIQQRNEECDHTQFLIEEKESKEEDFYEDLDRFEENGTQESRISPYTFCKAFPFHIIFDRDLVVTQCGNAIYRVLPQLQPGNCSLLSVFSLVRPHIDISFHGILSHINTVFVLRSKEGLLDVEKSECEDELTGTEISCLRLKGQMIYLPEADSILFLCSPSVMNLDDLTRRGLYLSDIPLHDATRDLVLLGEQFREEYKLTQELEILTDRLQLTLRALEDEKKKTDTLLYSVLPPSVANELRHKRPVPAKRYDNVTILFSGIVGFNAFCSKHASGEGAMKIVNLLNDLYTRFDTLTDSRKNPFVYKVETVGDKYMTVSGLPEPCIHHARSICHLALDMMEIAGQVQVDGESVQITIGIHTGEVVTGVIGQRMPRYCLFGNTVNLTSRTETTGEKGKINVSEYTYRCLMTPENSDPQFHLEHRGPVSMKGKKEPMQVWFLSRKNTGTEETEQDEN
T1 sequence (P19687 1-691 partner): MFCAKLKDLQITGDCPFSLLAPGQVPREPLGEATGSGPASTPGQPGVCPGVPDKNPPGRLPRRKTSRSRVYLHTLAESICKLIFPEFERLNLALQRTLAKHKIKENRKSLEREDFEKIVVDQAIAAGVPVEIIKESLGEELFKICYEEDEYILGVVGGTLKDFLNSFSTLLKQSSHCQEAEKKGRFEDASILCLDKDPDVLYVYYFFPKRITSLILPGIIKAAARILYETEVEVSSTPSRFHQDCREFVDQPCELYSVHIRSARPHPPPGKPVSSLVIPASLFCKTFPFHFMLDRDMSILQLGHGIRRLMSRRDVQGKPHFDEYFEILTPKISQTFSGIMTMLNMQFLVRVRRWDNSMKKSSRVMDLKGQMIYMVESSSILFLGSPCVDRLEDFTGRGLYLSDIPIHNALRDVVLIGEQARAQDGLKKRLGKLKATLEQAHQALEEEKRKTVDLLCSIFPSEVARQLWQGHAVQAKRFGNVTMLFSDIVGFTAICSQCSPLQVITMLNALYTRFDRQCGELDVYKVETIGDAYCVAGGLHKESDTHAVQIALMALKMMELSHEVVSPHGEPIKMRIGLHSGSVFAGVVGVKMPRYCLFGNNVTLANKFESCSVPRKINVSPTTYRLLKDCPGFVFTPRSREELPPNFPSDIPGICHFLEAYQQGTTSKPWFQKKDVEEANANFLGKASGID
Conditions: references (19, 34); cited from earlier work

For C=CC1=C(C)c2cc3[nH]c(cc4nc(cc5[nH]c(cc1n2)c(C)c5CCC(=O)O)C(CCC(=O)O)=C4C)c(C)c3C=C [protoporphyrin IX], the “stimulation of purified sGC” value is listed as “stimulated by low nanomolar concentrations”.
